In one assay the target is T1, HA3-Ste5 (S. cerevisiae) (UniProt P32917).
T1 sequence: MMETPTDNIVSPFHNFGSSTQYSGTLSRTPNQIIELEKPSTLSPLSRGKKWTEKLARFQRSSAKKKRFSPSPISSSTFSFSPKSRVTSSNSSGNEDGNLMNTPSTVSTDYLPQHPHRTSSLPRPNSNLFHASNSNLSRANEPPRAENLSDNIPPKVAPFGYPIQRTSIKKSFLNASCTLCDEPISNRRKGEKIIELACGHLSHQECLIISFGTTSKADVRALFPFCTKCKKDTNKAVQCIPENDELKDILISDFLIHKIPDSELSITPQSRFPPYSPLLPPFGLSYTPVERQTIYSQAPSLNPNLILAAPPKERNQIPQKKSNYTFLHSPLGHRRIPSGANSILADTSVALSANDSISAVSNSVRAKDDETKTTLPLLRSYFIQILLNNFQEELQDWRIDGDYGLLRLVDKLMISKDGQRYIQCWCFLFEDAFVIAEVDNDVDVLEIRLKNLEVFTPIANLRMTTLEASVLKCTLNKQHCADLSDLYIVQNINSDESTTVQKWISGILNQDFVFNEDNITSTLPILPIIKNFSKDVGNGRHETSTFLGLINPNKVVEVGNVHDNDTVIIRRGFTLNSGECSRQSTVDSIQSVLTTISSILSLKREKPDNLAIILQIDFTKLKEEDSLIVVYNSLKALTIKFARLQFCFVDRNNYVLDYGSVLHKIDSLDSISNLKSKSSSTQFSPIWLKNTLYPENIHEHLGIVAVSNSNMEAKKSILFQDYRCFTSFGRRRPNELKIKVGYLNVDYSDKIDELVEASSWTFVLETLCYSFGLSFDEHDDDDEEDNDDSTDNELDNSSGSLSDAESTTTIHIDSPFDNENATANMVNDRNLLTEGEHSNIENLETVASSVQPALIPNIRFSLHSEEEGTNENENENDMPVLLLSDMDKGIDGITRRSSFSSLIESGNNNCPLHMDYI
The assay is described as follows: co-IP; whole cell extracts of wild type and ssa1D ssa2D strains co-expressing Ste5-Myc9 and HA3-Ste5 from 2 micron plasmids; IP with 12CA5 or 9E10, immunoblot; modified H buffer with 150 mM NaCl. A general note: A western blot detects proteins with antibodies after separation by electrophoresis.

Chains of the proteins cited; added tags and fusions are not shown.
UniProt P10591: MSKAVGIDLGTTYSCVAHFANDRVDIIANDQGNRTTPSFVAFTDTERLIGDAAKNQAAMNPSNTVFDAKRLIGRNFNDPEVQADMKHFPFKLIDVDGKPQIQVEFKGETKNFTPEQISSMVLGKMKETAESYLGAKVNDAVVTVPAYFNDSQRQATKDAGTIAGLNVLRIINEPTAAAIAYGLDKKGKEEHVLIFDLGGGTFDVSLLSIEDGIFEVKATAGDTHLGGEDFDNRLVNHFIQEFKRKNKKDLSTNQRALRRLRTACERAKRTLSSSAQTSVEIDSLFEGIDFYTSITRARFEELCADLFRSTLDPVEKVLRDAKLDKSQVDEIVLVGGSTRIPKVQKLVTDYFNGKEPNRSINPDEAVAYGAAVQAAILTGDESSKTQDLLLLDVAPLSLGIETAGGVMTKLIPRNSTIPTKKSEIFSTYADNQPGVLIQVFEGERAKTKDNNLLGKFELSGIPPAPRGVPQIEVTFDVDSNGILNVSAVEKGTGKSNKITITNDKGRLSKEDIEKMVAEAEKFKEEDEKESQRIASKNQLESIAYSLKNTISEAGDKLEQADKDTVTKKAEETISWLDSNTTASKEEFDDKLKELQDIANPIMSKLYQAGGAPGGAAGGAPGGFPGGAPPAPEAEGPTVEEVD

The target of a further assay is Ssa1-GFP (S. cerevisiae) (UniProt P10591). The assay is described as follows: co-IP; whole cell extracts of EY1775 co-expressing the tagged proteins; IP with 9E10 (Myc) or anti-GFP polyclonal antibodies, immunoblot; modified H buffer with 200 mM NaCl, immunoprecipitation buffer 150 mM NaCl (results say 200 mM NaCl).
The target of assay [1] is Ste5-Myc9 (S. cerevisiae) (UniProt P32917). The description is as above.

These are yes or no findings as the source states them, for the method shown. In cells and extracts the contact can be indirect. Some binding calls cover weakened binding; strength is not graded here. Sequences can lack the tags named with a protein.

B1: Ste5-Myc9 (protein, UniProt P32917 1-917)
chain: MMETPTDNIVSPFHNFGSSTQYSGTLSRTPNQIIELEKPSTLSPLSRGKKWTEKLARFQRSSAKKKRFSPSPISSSTFSFSPKSRVTSSNSSGNEDGNLMNTPSTVSTDYLPQHPHRTSSLPRPNSNLFHASNSNLSRANEPPRAENLSDNIPPKVAPFGYPIQRTSIKKSFLNASCTLCDEPISNRRKGEKIIELACGHLSHQECLIISFGTTSKADVRALFPFCTKCKKDTNKAVQCIPENDELKDILISDFLIHKIPDSELSITPQSRFPPYSPLLPPFGLSYTPVERQTIYSQAPSLNPNLILAAPPKERNQIPQKKSNYTFLHSPLGHRRIPSGANSILADTSVALSANDSISAVSNSVRAKDDETKTTLPLLRSYFIQILLNNFQEELQDWRIDGDYGLLRLVDKLMISKDGQRYIQCWCFLFEDAFVIAEVDNDVDVLEIRLKNLEVFTPIANLRMTTLEASVLKCTLNKQHCADLSDLYIVQNINSDESTTVQKWISGILNQDFVFNEDNITSTLPILPIIKNFSKDVGNGRHETSTFLGLINPNKVVEVGNVHDNDTVIIRRGFTLNSGECSRQSTVDSIQSVLTTISSILSLKREKPDNLAIILQIDFTKLKEEDSLIVVYNSLKALTIKFARLQFCFVDRNNYVLDYGSVLHKIDSLDSISNLKSKSSSTQFSPIWLKNTLYPENIHEHLGIVAVSNSNMEAKKSILFQDYRCFTSFGRRRPNELKIKVGYLNVDYSDKIDELVEASSWTFVLETLCYSFGLSFDEHDDDDEEDNDDSTDNELDNSSGSLSDAESTTTIHIDSPFDNENATANMVNDRNLLTEGEHSNIENLETVASSVQPALIPNIRFSLHSEEEGTNENENENDMPVLLLSDMDKGIDGITRRSSFSSLIESGNNNCPLHMDYI
With B1, the binding result in the assay with HA3-Ste5 (S. cerevisiae) and with Ssa1-GFP (S. cerevisiae) was “binds” in each case.

B2: HA3-Ste5 (protein, UniProt P32917 1-917)
chain: MMETPTDNIVSPFHNFGSSTQYSGTLSRTPNQIIELEKPSTLSPLSRGKKWTEKLARFQRSSAKKKRFSPSPISSSTFSFSPKSRVTSSNSSGNEDGNLMNTPSTVSTDYLPQHPHRTSSLPRPNSNLFHASNSNLSRANEPPRAENLSDNIPPKVAPFGYPIQRTSIKKSFLNASCTLCDEPISNRRKGEKIIELACGHLSHQECLIISFGTTSKADVRALFPFCTKCKKDTNKAVQCIPENDELKDILISDFLIHKIPDSELSITPQSRFPPYSPLLPPFGLSYTPVERQTIYSQAPSLNPNLILAAPPKERNQIPQKKSNYTFLHSPLGHRRIPSGANSILADTSVALSANDSISAVSNSVRAKDDETKTTLPLLRSYFIQILLNNFQEELQDWRIDGDYGLLRLVDKLMISKDGQRYIQCWCFLFEDAFVIAEVDNDVDVLEIRLKNLEVFTPIANLRMTTLEASVLKCTLNKQHCADLSDLYIVQNINSDESTTVQKWISGILNQDFVFNEDNITSTLPILPIIKNFSKDVGNGRHETSTFLGLINPNKVVEVGNVHDNDTVIIRRGFTLNSGECSRQSTVDSIQSVLTTISSILSLKREKPDNLAIILQIDFTKLKEEDSLIVVYNSLKALTIKFARLQFCFVDRNNYVLDYGSVLHKIDSLDSISNLKSKSSSTQFSPIWLKNTLYPENIHEHLGIVAVSNSNMEAKKSILFQDYRCFTSFGRRRPNELKIKVGYLNVDYSDKIDELVEASSWTFVLETLCYSFGLSFDEHDDDDEEDNDDSTDNELDNSSGSLSDAESTTTIHIDSPFDNENATANMVNDRNLLTEGEHSNIENLETVASSVQPALIPNIRFSLHSEEEGTNENENENDMPVLLLSDMDKGIDGITRRSSFSSLIESGNNNCPLHMDYI
Regarding B2, the binding result with Ssa1-GFP (S. cerevisiae) is on record as “binds”.

B3: GFP-Cdc24 (protein, UniProt P11433 1-854)
chain: MAIQTRFASGTSLSDLKPKPSATSISIPMQNVMNKPVTEQDSLFHICANIRKRLEVLPQLKPFLQLAYQSSEVLSERQSLLLSQKQHQELLKSNGANRDSSDLAPTLRSSSISTATSLMSMEGISYTNSNPSATPNMEDTLLTFSMGILPITMDCDPVTQLSQLFQQGAPLCILFNSVKPQFKLPVIASDDLKVCKKSIYDFILGCKKHFAFNDEELFTISDVFANSTSQLVKVLEVVETLMNSSPTIFPSKSKTQQIMNAENQHRHQPQQSSKKHNEYVKIIKEFVATERKYVHDLEILDKYRQQLLDSNLITSEELYMLFPNLGDAIDFQRRFLISLEINALVEPSKQRIGALFMHSKHFFKLYEPWSIGQNAAIEFLSSTLHKMRVDESQRFIINNKLELQSFLYKPVQRLCRYPLLVKELLAESSDDNNTKELEAALDISKNIARSINENQRRTENHQVVKKLYGRVVNWKGYRISKFGELLYFDKVFISTTNSSSEPEREFEVYLFEKIIILFSEVVTKKSASSLILKKKSSTSASISASNITDNNGSPHHSYHKRHSNSSSSNNIHLSSSSAAAIIHSSTNSSDNNSNNSSSSSLFKLSANEPKLDLRGRIMIMNLNQIIPQNNRSLNITWESIKEQGNFLLKFKNEETRDNWSSCLQQLIHDLKNEQFKARHHSSTSTTSSTAKSSSMMSPTTTMNTPNHHNSRQTHDSMASFSSSHMKRVSDVLPKRRTTSSSFESEIKSISENFKNSIPESSILFRISYNNNSNNTSSSEIFTLLVEKVWNFDDLIMAINSKISNTHNNNISPITKIKYQDEDGDFVVLGSDEDWNVAKEMLAENNEKFLNIRLY
On to B3, for which the binding result in assay [1] is recorded as “binds”.
